For the assay, the target named is recombinant BoxA domain of HMGB1. Description: Western blot. (Immunoblotting shows a protein as a band on a membrane.)

No constants are given. Whether binding was seen depends on the method and setting.

B1: mouse anti-HMGB1 monoclonal antibody DPH1.1 (antibody, IgG1, V domains shown)
VH: LLEESGAELVKPGASVKLSCTASGFNIEDTYVHWVKQRPEQGLEWIGRIDPANGNSKYDPKFQGKATLTADTFSNTAYLQLSSLTSEDTAVYYCAVTGTGALDYWGQGT
VL: ELVLTQPPSSLAVSAGEKVTMSCKSSQSVLYSSNQKNYLAWYQQKPGQSPKLLIYWASTRESGVPDRFTGSGSGTDFTLNITNVQPDDLAVYYCHQYLSSVTFGAGTKLELKR
With B1, the binding result is given as “no binding (tested: 500 ng or 100 ng BoxA per lane)”.

These data come from US20140030271A1.
